Laboratory results taken from US20150376238A1 (University of Washington, published 2015).
No constants are given. Whether binding was seen depends on the method and setting. Some binding calls cover weakened binding; strength is not graded here.

Target: H3 hemagglutinin (A/Hong Kong/1/1968) (Influenza A virus A/Hong Kong/1/1968 (H3N2)) (UniProt Q91MA7)
Test: yeast surface display titration

B1: SB24solo2 (designed binder)
chain: ASGMLAISMDTDKISNSFEDCKYFLIELKSAGWTNTIFNDESGKEEIVKMGVDAIICKNISEENYKKFSKKIEIYHAEGDDVNKNISLFLEGELSKISNP
B1 was tested, and the binding was “binds”.
